Test results: PubChem BioAssay AID488837 (National Center for Advancing Translational Sciences (NCATS), 2010)
Out of some 330,000 compounds screened, about 20 (0.006%) were called active. The shares of active, inactive and inconclusive entries below differ from those in the screen. Calls follow the shape of the dose curve; as a rule, active = well fitted inhibition curve with a large enough effect; inconclusive = small, poorly fitted or top-dose-only effect, or effect the other way; inactive = flat fitted curve, though single readings scatter. Potencies of inconclusive entries are doubtful fits and often do not repeat.

Amino acid sequences for entries named in this document (tags omitted). A change or cut given only in a name is not applied to a line headed by its entry.
UniProt O00167: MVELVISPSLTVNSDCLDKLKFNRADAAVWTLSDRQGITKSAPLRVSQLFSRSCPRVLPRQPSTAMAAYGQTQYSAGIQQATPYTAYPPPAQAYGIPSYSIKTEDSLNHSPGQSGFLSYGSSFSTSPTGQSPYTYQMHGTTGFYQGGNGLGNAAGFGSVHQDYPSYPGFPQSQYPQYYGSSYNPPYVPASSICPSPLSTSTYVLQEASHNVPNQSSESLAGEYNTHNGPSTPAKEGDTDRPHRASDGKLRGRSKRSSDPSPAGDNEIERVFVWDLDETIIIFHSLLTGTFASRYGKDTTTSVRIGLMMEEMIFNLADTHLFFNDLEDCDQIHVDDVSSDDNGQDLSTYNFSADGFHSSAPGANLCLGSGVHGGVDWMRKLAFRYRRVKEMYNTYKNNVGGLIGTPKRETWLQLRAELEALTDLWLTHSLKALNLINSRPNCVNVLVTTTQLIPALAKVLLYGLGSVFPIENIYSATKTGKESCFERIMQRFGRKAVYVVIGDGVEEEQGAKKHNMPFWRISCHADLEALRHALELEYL

Target: Protein phosphatase EYA2 (Homo sapiens) (UniProt O00167)
Assay: qHTS Assay for Inhibitors of the Phosphatase Activity of Eya2
Details: recombinant Eya2, OMFP fluorescence dephosphorylation (OMFP is methylfluorescein phosphate); activity, negative = inhibition: at 76.9 µM (top of the series)
Procedure, shortened: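 Eya2 protein (added as 0.2 uM solution) was preincubated with compound for 10 min at ambient temperature in 50 mM HEPES pH 7.5, 50 mM NaCl, 5 uM MgCl2, 0.05% BSA, 1 mM DTT. OMFP (added at 50 uM) then reacted 10 min; fluorescence read at 485/525 nm.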
% is scaled to controls: 0 for no effect and ±100 for the full control effect; potency is read from the fitted curve at half-maximal effect.

| Compound | Potency | activity, negative = inhibition |
| --- | --- | --- |
| N#CC1=C(N)Oc2c(c(=O)oc3ccccc23)C1c1ccncc1 (stereo unspecified) | inactive |  |
| CC(C)CCOC(=O)c1c(N)n(CC2CCCO2)c2nc3ccccc3nc12 (stereo unspecified) | inconclusive: 200 µM [inhibitor, partial curve, poor fit] |  |
| Cc1ccc(NC(=O)c2snnc2C)cc1Cl | inactive |  |
| O=[N+]([O-])c1ccc(NCc2ccccc2)c2nonc12 | inconclusive: 31.6 µM [activator, partial curve] |  |
| COc1cccc(C(=O)C2CCCN(Cc3cccc4c3OCO4)C2)c1 (stereo unspecified) | inconclusive: 100 µM [inhibitor, single point] |  |
| CCOC(=O)c1ccc(NC(=O)c2c(O)[nH]c(=O)[nH]c2=O)cc1 | inconclusive: 10 µM [activator, partial curve] |  |
| CC(C)[C@H]1C(=O)O[C@H](C(C)C)C(=O)N(C)[C@@H](C(C)C)C(=O)O[C@H](C(C)C)C(=O)N(C)[C@@H](C(C)C)C(=O)O[C@H](C(C)C)C(=O)N1C | inconclusive: 100 µM [inhibitor, single point] |  |
| O=C(COc1ccccc1)NCCc1cnc[nH]1 | inconclusive: 224 µM [inhibitor, partial curve, poor fit] |  |
| CCOC(=O)C(O)(c1ccc(NC(=O)c2ccc(Cl)c(Cl)c2)cc1)C(F)(F)F (stereo unspecified) | inconclusive: 79.4 µM [inhibitor, single point] |  |
| CCn1c(O)c(/C=N/NC(=O)c2ccncc2)c(=O)[nH]c1=S | inactive |  |
| O=C1NC(=O)N(c2ccccc2)C(=O)/C1=C/C=C/c1ccco1 | inactive |  |
| CCCCCCCSc1cc(OC)c(CCN(C)C)cc1OC | inconclusive: 89.1 µM [inhibitor, single point] |  |
| COc1ccc(C(=O)N2CCC3(CC2)OCCO3)cc1 | inactive |  |
| CCCCCCCCCCCCCC(=O)O[C@@H]1[C@@H](C)[C@@]2(O)[C@@H](C=C(CO)C[C@@]3(O)C(=O)C(C)=C[C@@H]23)C2C(C)(C)[C@@]21OC(C)=O (stereo partly specified) | inconclusive: 100 µM [inhibitor, partial curve] |  |
| Cc1cc(C)cc(NC(=S)NC2CC3CCCC(C2)N3Cc2cccs2)c1 (stereo unspecified) | inconclusive: 141 µM [inhibitor, partial curve, poor fit] |  |
| CN1CC(C(=O)c2ccc(F)cc2)C(c2ccc(F)cc2)C1 (stereo unspecified) | inconclusive: 25.1 µM [inhibitor, partial curve, poor fit] |  |
| CCCCC/C=C\C/C=C\C/C=C\C/C=C\CCCC(=O)Nc1ccc(O)cc1 | inconclusive: 89.1 µM [inhibitor, single point] |  |
| CCC(N)Cc1c[nH]c2ccccc12 (stereo unspecified) | inconclusive: 28.2 µM [inhibitor, partial curve] |  |
| CN(C[C@H](Cc1ccccc1)N(C[C@H](c1ccccc1)N(CCc1ccccc1)N=O)N=O)N=O | inconclusive: 17.8 µM [inhibitor, single point] |  |
| COCCNC(=O)c1c(N)n(Cc2ccco2)c2nc3ccccc3nc12 | inactive |  |
| COc1ccc(NC(=O)Cn2c3ccccc3c3nc4n(c(=O)c32)CCS4)cc1 | inconclusive: 282 µM [inhibitor, partial curve] |  |
| COCCCn1c(N)c(C(=O)Nc2sc3c(c2C(=O)OC)CCCC3)c2nc3ccccc3nc21 | inconclusive: 17.8 µM [inhibitor, single point] |  |

Complete entries, looked up by structure:
CCOC(=O)c1ccc(NC(=O)c2c(O)[nH]c(=O)[nH]c2=O)cc1 as listed: Potency: inconclusive: 10 µM [activator, partial curve]
O=C1NC(=O)N(c2ccccc2)C(=O)/C1=C/C=C/c1ccco1 as listed: Potency: inactive

More compounds follow.

| Compound | Potency | activity, negative = inhibition |
| --- | --- | --- |
| Cc1cc(OCC(=O)N2CCC(C(=O)O)CC2)c2c3c(c(=O)oc2c1)CCCC3 | inconclusive: 224 µM [inhibitor, partial curve, poor fit] |  |
| NC(Cc1ccccc1)c1nc2ccccc2[nH]1 (stereo unspecified) | inactive |  |
| CCN(CC)c1ccc(N=Cc2c(O)n(-c3ccc(Cl)cc3)c(=O)[nH]c2=O)cc1 | inactive |  |
| O=C(COc1ccc2ccccc2c1)N1CCN(C2CCN(Cc3ccccc3)CC2)CC1 | inactive |  |
| CCCCn1c(O)c(/C=N/NC(=O)c2ccncc2)c(=O)[nH]c1=S | inactive |  |
| O=C1CN=C(c2ccc(Cl)cc2)c2oc3ccccc3c2N1 | inconclusive: 100 µM [inhibitor, single point] |  |
| COC(=O)C1C(O)CC2CCC1N2C (stereo unspecified) | inconclusive: 100 µM [inhibitor, single point] |  |
| O=C1NC(=O)C(=Cc2ccccc2OCCOc2ccc([N+](=O)[O-])cc2)C(=O)N1 | inconclusive: 89.1 µM [inhibitor, single point] |  |
| CCOc1ccc(Cc2c(O)[nH]c(=O)[nH]c2=O)cc1 | inactive |  |
| CCCCn1c(NC(=O)c2ccc(Br)o2)c(C(=O)OCC)c2nc3ccccc3nc21 | inactive |  |
| Cc1ccc(N2C(=O)NC(=O)/C(=C\c3ccoc3)C2=O)cc1 |  | inconclusive: 45.4% [activator] |
| COc1ccc(Cn2c(O)c(/C=N/NC(=O)c3ccncc3)c(=O)[nH]c2=O)cc1 | inconclusive: 112 µM [inhibitor, single point] |  |
| O=c1ccc2cc(O[C@@H]3O[C@@H](CO)[C@H](O)[C@@H](O)[C@@H]3O)c(O)cc2o1 | inconclusive: 89.1 µM [inhibitor, single point] |  |
| O=C(Cn1c(=O)oc2ccccc21)Nc1ccc(Br)cc1 | inconclusive: 141 µM [inhibitor, partial curve, poor fit] |  |
| CCOC(=O)c1ccc(N=C(CC)c2c(O)n(C)c(=O)n(C)c2=O)cc1 | inconclusive: 10 µM [inhibitor, partial curve, poor fit] |  |
| Cn1c(=O)c2c(nc(N/N=C/c3c(O)n(C4CCCCC4)c(=S)[nH]c3=O)n2C)n(C)c1=O | inconclusive: 89.1 µM [inhibitor, single point] |  |
| COc1ccc(S(=O)(=O)NC(CC(=O)N2CCC3(CC2)OCCO3)c2ccco2)cc1 (stereo unspecified) | inactive |  |
| c1cc(C2N3CCCN2CC3)ccn1 (stereo unspecified) | inactive |  |
| CCN(CC)C(=O)c1ccc(NC(=O)CCCSc2ccccc2)cc1 | inconclusive: 224 µM [inhibitor, partial curve] |  |
| c1cncc(CNC2=NCCCCC2)c1 | inactive |  |
| CC1(C)OC(c2ccccc2)=C/C(=C/C=C2C(=O)NC(=S)NC2=O)O1 | inconclusive: 31.6 µM [activator, partial curve] |  |
| Cn1ncnc2c(=O)n(C)c(=O)nc1-2 | active: 20 µM |  |

| Compound | Potency | activity, negative = inhibition |
| --- | --- | --- |
| Cn1c(O)c(C=Nc2ccc(F)cc2)c(=O)[nH]c1=O | inconclusive: 17.8 µM [inhibitor, single point] |  |
| C#CCOc1ccc2c(c1)c(C(C)=O)c(C)n2Cc1ccccc1 | inconclusive: 112 µM [inhibitor, single point] |  |
| COc1ccc(-n2c(-c3ccccc3[N+](=O)[O-])nc3ccccc3c2=O)cc1 | inconclusive: 89.1 µM [inhibitor, single point] |  |
| O=[N+]([O-])c1c2ccccc2cc2ccccc12 | inactive |  |
| C=C(C=O)CC1CC(O)[C@]2(C)OC3CC4OC5C[C@]6(C)O[C@]7(C)CCC8OC9C[C@]%10(C)OC%11C(C)=CC(=O)OC%11CC%10OC9C[C@@H](C)C8OC7CC6O[C@]5(C)CC5OC5C4OC3CC2O1 (stereo partly specified) | inconclusive: 15.8 µM [inhibitor, partial curve, poor fit] |  |
| Fc1ccc(Cn2nnnc2CN2CCC(n3nnc4cc(C(F)(F)F)ccc43)CC2)cc1 | inconclusive: 100 µM [inhibitor, partial curve] |  |
| Cc1ccc(CN2C3CCCC2CC(NC(=S)NCc2ccccc2)C3)cc1 (stereo unspecified) | inconclusive: 25.1 µM [inhibitor, single point] |  |
| CN1CCN(c2ccc([N+](=O)[O-])c(Sc3nncn3C)c2)CC1 | inconclusive: 89.1 µM [inhibitor, single point] |  |
| COc1ccc(Cn2c(N)c(C(=O)NCc3ccco3)c3nc4ccccc4nc32)cc1OC | inactive |  |
| CCn1c(O)c(C=Nc2ccc(N3CCOCC3)cc2)c(=O)n(CC)c1=S | inconclusive: 1260 µM [inhibitor, partial curve, poor fit] |  |
| CC1CCC(C(C)C)C(OC(=O)Cn2c(COc3ccccc3)[n+](C)c3ccccc32)C1 (stereo unspecified) | inconclusive: 100 µM [inhibitor, single point] |  |
| CN1/C(=C\C=C2C(=O)NC(=S)NC2=O)C(C)(C)c2ccccc21 | inconclusive: 100 µM [activator, partial curve, poor fit] |  |
| Cc1nc(C(=O)O)nn1-c1ccc([N+](=O)[O-])cc1 | inconclusive: 63.1 µM [inhibitor, single point] |  |
| CCCc1cc(=O)oc2cc(OCC(=O)N3C[C@H]4C[C@@H](C3)c3cccc(=O)n3C4)ccc12 | inconclusive: 112 µM [inhibitor, single point] |  |
| Cc1ccccc1-n1c(O)c(/C=N/Nc2nc3c(c(=O)n(C)c(=O)n3C)n2C)c(=O)[nH]c1=S | inactive |  |
| CN1C(=O)/C(=C\c2ccc(N3CCCCCC3)cc2)C(=O)NC1=S | inconclusive: 89.1 µM [inhibitor, single point] |  |
| O=C1NC(=O)N(c2ccccc2)C(=O)/C1=C/c1ccoc1 |  | inconclusive: 36.1% [activator] |
| CCNC(=S)NCCC1=c2ccccc2=N/C1=C\c1c(O)n(C)c(=O)n(C)c1=O | inconclusive: 708 µM [inhibitor, single point] |  |
| C=CCn1c(O)c(C(C)=NCCCN(C)C)c(=O)[nH]c1=O | inactive |  |
| CCCCn1c(O)c(C=NC2CC3CCC2(C)C3(C)C)c(=O)[nH]c1=O (stereo unspecified) | inactive |  |
| O=C(c1ccc(Cl)cc1)C1CCCN(Cc2cccc3ncccc23)C1 (stereo unspecified) | inconclusive: 398 µM [inhibitor, single point] |  |
| CC(C)CC(NP(=O)(O)O[C@@H]1O[C@@H](C)[C@H](O)[C@@H](O)[C@H]1O)C(=O)NC(Cc1c[nH]c2ccccc12)C(=O)O (stereo partly specified) | inactive |  |
